Source: patent US20260209332A1 (SORRISO PHARMACEUTICALS, published 2026)
Results are given in words; binding and its absence hold for the method and conditions named. Some entries that bind do so weakly or less than the wild type.

The chains behind the UniProt entries cited, without tags or fusion partners. Where a name states a change or a piece, a line headed by the entry shows the natural chain unless it says otherwise.
UniProt Q9NPF7: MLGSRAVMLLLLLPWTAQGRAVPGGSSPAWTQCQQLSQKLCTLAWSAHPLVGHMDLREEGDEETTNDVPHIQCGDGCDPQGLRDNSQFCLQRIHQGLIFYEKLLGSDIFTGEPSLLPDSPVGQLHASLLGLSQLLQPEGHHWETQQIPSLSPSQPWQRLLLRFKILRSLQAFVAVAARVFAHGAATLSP

Columns and labels:
interleukin-23 (IL-23) [1] = target: interleukin-23 (IL-23) (UniProt Q9NPF7); experiment: IL-23/IL-23R ELISA, 4 h sample in pooled human fecal supernatant against the 0 h sample, N=3; the text speaks of the dual inhibitor and its cleavage products
interleukin-23 (IL-23) [2] = target: interleukin-23 (IL-23) (UniProt Q9NPF7); experiment: IL-23/IL-23R ELISA
interleukin-23 (IL-23) [3] = target: interleukin-23 (IL-23) (UniProt Q9NPF7); experiment: IL-23/IL-23 receptor interference ELISA
interleukin-23 (IL-23) [4] = target: interleukin-23 (IL-23) (UniProt Q9NPF7); experiment: IL-23/IL-23R interference ELISA; blocked interaction: IL-23 with IL-23 receptor
interleukin-23 (IL-23) [5] = target: interleukin-23 (IL-23) (UniProt Q9NPF7); experiment: IL-23/IL-23R interference ELISA; blocked interaction: IL-23 with IL-23 receptor; arm liberated by trypsin
interleukin-23 (IL-23) [6] = target: interleukin-23 (IL-23) (UniProt Q9NPF7); experiment: summary of the examples (ELISA)
interleukin-23 (IL-23) [7] = target: interleukin-23 (IL-23) (UniProt Q9NPF7); experiment: IL-23/IL-23R ELISA, 4 h sample in pooled human fecal supernatant against the 0 h sample, N=3

Measured: binding

B1: TNF-alpha/IL-23 dual inhibitor (bispecific anti-TNF-alpha/anti-IL-23 domain antibody) (bispecific antibody)
chain: DVQLVESGGGLVQPGGSLKLSCAASGFDFSSHWMYWVRQAPGKELEWLSEINTNGLITHYGDSVKGRFTVSRNNAANKMYLELTRLEPEDTALYYCARNQHGLNKGQGTQVTVSSGGGGSGGGGSKGGGGSGGGGSEVQLVESGGGQVQPGGSLSLSCESSVSIWSFKVMGWFRQVPGKQRELVATITTGGSPDYSDSVKGRFTISRDYDKRTLYLQMNSLKPEDTAVYYCAGRLWAHITSSGHDVWGQGTQVTVSS
notes: Produced and purified from yeast; also called FA1K
binds: interleukin-23 (IL-23) [1] | interleukin-23 (IL-23) [2] | interleukin-23 (IL-23) [3] | interleukin-23 (IL-23) [4]

B2: liberated anti-IL-23 monomer arm of TNF-alpha/IL-23 dual inhibitor (VHH)
VHH: EVQLVESGGGQVQPGGSLSLSCESSVSIWSFKVMGWFRQVPGKQRELVATITTGGSPDYSDSVKGRFTISRDYDKRTLYLQMNSLKPEDTAVYYCAGRLWAHITSSGHDVWGQGTQVTVSS
notes: Cleavage product; carries the remnant of the linker at its N-terminus; also called liberated-IL-23
binds: interleukin-23 (IL-23) [5] | interleukin-23 (IL-23) [6] | interleukin-23 (IL-23) [2] | interleukin-23 (IL-23) [3]

B3: IL-23 inhibitor (anti-IL-23 single domain antibody, parent monomer) (VHH)
VHH: B2 VHH
notes: Produced in yeast; also called IL-23: D1E ID-L253T
binds: interleukin-23 (IL-23) [7] | interleukin-23 (IL-23) [3] | interleukin-23 (IL-23) [4]
